Assay results as given in article PMC11156954, “Inhibition and transport mechanisms of the ABC transporter hMRP5” (Nature Communications, 2024).
Results are given in words; binding and its absence hold for the method and conditions named. Some entries that bind do so weakly or less than the wild type.

Target: hMRP5-Δ1-94-8xHis (human) (UniProt O15440)
Test: MST; digitonin-purified hMRP5-Δ1-94-8xHis labelled with RED-tris-NTA 2nd Generation dye; serially diluted peptides; 15 min at room temperature; HEPES buffer; 3% LED/excitation power, medium MST power (Monolith NT); both purified

binding: binds weakly
Binder: DIGKEYIIPSPGYRSVRERTS (peptide, UniProt O15440 5-25) [Asp5-Ser25 peptide of hMRP5]
